Measurements from article PMC10367052.

The chains behind the UniProt entries cited, without tags or fusion partners. Where a name states a change or a piece, a line headed by the entry shows the natural chain unless it says otherwise. Residues count along the entry.
UniProt Q8NHS0: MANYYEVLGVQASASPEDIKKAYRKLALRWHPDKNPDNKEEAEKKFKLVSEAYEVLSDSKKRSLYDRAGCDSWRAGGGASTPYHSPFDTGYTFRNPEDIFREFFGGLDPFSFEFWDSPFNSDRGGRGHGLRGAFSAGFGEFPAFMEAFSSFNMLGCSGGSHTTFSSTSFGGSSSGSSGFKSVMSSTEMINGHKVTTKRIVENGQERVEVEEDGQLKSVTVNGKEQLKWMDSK
UniProt P04406: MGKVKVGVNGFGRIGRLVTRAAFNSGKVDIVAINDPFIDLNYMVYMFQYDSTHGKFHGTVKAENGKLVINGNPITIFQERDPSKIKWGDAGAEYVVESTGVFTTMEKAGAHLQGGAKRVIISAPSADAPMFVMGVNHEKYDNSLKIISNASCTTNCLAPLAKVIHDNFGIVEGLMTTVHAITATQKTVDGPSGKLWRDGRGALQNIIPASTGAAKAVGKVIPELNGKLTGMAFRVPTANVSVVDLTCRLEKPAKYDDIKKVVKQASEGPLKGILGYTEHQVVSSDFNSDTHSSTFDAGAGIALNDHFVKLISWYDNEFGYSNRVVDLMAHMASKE
UniProt P30101, residues 25-505: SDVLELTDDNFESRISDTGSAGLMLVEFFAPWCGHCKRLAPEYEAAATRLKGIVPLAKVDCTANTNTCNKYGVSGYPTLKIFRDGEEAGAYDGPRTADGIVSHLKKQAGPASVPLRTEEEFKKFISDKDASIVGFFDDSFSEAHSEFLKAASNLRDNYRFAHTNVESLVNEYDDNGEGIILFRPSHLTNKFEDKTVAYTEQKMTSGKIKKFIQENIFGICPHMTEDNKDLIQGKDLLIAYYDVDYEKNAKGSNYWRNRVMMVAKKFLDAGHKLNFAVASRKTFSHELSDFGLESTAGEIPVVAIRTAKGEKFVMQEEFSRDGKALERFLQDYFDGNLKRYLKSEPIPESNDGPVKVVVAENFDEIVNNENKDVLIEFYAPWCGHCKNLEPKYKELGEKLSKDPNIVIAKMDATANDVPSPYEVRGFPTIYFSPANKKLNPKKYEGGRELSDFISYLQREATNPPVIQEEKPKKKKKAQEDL
UniProt P10809, residues 27-573: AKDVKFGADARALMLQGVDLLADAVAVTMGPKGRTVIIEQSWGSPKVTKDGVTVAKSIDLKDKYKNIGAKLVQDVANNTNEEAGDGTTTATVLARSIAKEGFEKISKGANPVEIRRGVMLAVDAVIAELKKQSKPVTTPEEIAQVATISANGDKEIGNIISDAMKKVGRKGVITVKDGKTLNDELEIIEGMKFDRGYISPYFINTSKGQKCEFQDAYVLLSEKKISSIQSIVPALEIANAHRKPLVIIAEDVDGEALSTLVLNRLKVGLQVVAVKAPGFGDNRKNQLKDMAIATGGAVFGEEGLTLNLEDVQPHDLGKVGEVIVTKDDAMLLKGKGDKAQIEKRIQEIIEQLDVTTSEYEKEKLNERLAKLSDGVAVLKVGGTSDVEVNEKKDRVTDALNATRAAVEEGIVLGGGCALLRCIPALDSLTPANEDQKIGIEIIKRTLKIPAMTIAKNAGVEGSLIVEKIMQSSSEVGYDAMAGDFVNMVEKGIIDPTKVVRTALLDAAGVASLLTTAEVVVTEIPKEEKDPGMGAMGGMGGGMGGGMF
UniProt Q96GX5: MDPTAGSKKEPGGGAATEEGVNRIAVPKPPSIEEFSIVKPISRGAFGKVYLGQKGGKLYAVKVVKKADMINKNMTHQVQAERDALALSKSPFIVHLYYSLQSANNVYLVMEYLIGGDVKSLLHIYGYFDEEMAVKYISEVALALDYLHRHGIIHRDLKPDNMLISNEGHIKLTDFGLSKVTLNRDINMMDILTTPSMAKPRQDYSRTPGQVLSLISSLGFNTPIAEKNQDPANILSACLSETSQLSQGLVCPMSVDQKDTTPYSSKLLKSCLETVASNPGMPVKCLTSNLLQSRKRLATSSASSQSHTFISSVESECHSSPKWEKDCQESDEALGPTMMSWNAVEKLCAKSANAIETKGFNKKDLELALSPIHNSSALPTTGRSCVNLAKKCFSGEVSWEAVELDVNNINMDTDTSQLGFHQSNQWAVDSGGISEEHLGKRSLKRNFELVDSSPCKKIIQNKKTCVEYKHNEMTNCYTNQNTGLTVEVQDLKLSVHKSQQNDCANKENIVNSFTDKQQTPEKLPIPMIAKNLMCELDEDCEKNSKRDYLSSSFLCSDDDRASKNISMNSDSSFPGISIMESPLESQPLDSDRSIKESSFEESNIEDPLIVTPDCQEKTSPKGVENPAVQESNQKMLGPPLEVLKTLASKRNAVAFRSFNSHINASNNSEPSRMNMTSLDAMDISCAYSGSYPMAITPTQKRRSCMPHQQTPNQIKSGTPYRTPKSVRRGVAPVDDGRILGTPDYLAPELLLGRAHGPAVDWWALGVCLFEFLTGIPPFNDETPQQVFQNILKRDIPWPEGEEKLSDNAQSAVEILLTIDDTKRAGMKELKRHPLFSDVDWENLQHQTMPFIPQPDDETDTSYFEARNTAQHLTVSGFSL
UniProt Q99497: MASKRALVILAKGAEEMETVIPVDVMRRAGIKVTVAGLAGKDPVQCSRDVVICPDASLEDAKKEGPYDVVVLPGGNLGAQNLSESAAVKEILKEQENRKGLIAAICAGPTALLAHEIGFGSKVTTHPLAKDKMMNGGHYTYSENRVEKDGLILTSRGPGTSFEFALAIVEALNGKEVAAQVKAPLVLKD
UniProt Q14145: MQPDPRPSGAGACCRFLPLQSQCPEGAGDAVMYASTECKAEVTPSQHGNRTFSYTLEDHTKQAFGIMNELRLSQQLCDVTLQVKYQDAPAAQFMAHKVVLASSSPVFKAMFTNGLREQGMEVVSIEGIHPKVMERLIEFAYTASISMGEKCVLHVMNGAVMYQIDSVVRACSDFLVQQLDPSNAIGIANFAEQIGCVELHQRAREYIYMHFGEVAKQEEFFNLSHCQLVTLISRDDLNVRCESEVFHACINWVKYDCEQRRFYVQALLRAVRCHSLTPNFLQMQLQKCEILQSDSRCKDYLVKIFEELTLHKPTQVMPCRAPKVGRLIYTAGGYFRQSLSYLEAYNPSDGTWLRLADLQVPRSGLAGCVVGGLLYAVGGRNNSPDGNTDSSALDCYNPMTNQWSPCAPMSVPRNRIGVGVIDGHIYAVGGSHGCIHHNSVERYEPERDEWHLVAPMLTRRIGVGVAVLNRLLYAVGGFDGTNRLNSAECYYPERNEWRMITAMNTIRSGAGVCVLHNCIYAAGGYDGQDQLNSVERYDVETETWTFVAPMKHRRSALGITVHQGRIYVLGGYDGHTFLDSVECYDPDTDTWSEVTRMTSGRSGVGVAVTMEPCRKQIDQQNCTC
UniProt P04818: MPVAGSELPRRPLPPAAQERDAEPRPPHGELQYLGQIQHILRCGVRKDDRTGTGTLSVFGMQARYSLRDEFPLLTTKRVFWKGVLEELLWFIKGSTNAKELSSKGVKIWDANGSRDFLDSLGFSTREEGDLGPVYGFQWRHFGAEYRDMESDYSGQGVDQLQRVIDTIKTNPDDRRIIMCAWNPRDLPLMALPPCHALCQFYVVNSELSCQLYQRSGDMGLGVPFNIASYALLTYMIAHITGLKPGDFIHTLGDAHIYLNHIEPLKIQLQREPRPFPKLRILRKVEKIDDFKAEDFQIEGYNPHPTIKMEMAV
UniProt P60228: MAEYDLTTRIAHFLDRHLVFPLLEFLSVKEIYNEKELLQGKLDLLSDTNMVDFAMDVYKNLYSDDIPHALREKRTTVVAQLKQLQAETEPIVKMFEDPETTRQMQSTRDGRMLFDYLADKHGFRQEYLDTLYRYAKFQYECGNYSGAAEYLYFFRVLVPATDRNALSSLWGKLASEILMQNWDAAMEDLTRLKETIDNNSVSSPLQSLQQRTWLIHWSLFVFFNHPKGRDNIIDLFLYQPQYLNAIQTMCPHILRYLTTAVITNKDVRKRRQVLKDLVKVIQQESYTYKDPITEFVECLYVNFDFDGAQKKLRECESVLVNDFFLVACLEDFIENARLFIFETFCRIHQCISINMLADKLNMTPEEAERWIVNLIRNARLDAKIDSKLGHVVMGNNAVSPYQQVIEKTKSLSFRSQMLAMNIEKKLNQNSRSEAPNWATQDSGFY
UniProt P17028: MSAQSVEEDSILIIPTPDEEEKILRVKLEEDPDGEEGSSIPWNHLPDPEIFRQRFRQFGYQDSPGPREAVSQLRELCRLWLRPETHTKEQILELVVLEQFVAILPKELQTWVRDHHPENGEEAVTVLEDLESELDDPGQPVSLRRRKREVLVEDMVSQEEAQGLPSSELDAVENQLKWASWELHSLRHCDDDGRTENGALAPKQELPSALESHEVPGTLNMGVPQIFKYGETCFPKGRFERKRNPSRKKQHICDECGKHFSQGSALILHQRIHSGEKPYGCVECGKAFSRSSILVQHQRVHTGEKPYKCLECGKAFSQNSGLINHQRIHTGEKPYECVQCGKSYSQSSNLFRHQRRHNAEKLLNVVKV
UniProt P12277: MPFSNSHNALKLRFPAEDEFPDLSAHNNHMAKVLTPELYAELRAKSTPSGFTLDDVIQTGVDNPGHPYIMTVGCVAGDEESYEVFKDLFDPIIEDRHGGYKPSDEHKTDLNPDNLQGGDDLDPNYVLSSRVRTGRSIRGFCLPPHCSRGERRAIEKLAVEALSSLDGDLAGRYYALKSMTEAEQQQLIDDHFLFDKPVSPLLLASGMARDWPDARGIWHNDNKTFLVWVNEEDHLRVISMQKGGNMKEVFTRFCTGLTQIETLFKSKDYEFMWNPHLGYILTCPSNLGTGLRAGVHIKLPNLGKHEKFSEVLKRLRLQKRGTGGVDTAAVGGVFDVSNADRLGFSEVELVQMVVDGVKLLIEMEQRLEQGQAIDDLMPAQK

B1: Acetyl-CoA acetyltransferase 1 (ACAT1) (protein, UniProt P24752 34-427)
chain: VSKPTLKEVVIVSATRTPIGSFLGSLSLLPATKLGSIAIQGAIEKAGIPKEEVKEAYMGNVLQGGEGQAPTRQAVLGAGLPISTPCTTINKVCASGMKAIMMASQSLMCGHQDVMVAGGMESMSNVPYVMNRGSTPYGGVKLEDLIVKDGLTDVYNKIHMGSCAENTAKKLNIARNEQDAYAINSYTRSKAAWEAGKFGNEVIPVTVTVKGQPDVVVKEDEEYKRVDFSKVPKLKTVFQKENGTVTAANASTLNDGAAALVLMTADAAKRLNVTPLARIVAFADAAVEPIDFPIAPVYAASMVLKDVGLKKEDIAMWEVNEAFSLVVLANIKMLEIDPQKVNINGGAVSLGHPIGMSGARIVGHLTHALKQGEYGLASICNGGGGASAMLIQKL
B2: ACAA2 (protein, UniProt P42765 1-397)
chain: MALLRGVFVVAAKRTPFGAYGGLLKDFTATDLSEFAAKAALSAGKVSPETVDSVIMGNVLQSSSDAIYLARHVGLRVGIPKETPALTINRLCGSGFQSIVNGCQEICVKEAEVVLCGGTESMSQAPYCVRNVRFGTKLGSDIKLEDSLWVSLTDQHVQLPMAMTAENLAVKHKISREECDKYALQSQQRWKAANDAGYFNDEMAPIEVKTKKGKQTMQVDEHARPQTTLEQLQKLPPVFKKDGTVTAGNASGVADGAGAVIIASEDAVKKHNFTPLARIVGYFVSGCDPSIMGIGPVPAISGALKKAGLSLKDMDLVEVNEAFAPQYLAVERSLDLDISKTNVNGGAIALGHPLGGSGSRITAHLVHELRRRGGKYAVGSACIGGGQGIAVIIQSTA
B3: DLD (protein, UniProt P09622 36-509)
chain: ADQPIDADVTVIGSGPGGYVAAIKAAQLGFKTVCIEKNETLGGTCLNVGCIPSKALLNNSHYYHMAHGKDFASRGIEMSEVRLNLDKMMEQKSTAVKALTGGIAHLFKQNKVVHVNGYGKITGKNQVTATKADGGTQVIDTKNILIATGSEVTPFPGITIDEDTIVSSTGALSLKKVPEKMVVIGAGVIGVELGSVWQRLGADVTAVEFLGHVGGVGIDMEISKNFQRILQKQGFKFKLNTKVTGATKKSDGKIDVSIEAASGGKAEVITCDVLLVCIGRRPFTKNLGLEELGIELDPRGRIPVNTRFQTKIPNIYAIGDVVAGPMLAHKAEDEGIICVEGMAGGAVHIDYNCVPSVIYTHPEVAWVGKSEEQLKEEGIEYKVGKFPFAANSRAKTNADTDGMVKILGQKSTDRVLGAHILGPGAGEMVNEAALALEYGASCEDIARVCHAHPTLSEAFREANLAASFGKSINF
B4: NNT (protein, UniProt Q13423 44-1086)
chain: CKAPVKPGIPYKQLTVGVPKEIFQNEKRVALSPAGVQNLVKQGFNVVVESGAGEASKFSDDHYRVAGAQIQGAKEVLASDLVVKVRAPMVNPTLGVHEADLLKTSGTLISFIYPAQNPELLNKLSQRKTTVLAMDQVPRVTIAQGYDALSSMANIAGYKAVVLAANHFGRFFTGQITAAGKVPPAKILIVGGGVAGLASAGAAKSMGAIVRGFDTRAAALEQFKSLGAEPLEVDLKESGEGQGGYAKEMSKEFIEAEMKLFAQQCKEVDILISTALIPGKKAPVLFNKEMIESMKEGSVVVDLAAEAGGNFETTKPGELYIHKGITHIGYTDLPSRMATQASTLYSNNITKLLKAISPDKDNFYFDVKDDFDFGTMGHVIRGTVVMKDGKVIFPAPTPKNIPQGAPVKQKTVAELEAEKAATITPFRKTMSTASAYTAGLTGILGLGIAAPNLAFSQMVTTFGLAGIVGYHTVWGVTPALHSPLMSVTNAISGLTAVGGLALMGGHLYPSTTSQGLAALAAFISSVNIAGGFLVTQRMLDMFKRPTDPPEYNYLYLLPAGTFVGGYLAALYSGYNIEQIMYLGSGLCCVGALAGLSTQGTARLGNALGMIGVAGGLAATLGVLKPGPELLAQMSGAMALGGTIGLTIAKRIQISDLPQLVAAFHSLVGLAAVLTCIAEYIIEYPHFATDAAANLTKIVAYLGTYIGGVTFSGSLIAYGKLQGLLKSAPLLLPGRHLLNAGLLAASVGGIIPFMVDPSFTTGITCLGSVSALSAVMGVTLTAAIGGADMPVVITVLNSYSGWALCAEGFLLNNNLLTIVGALIGSSGAILSYIMCVAMNRSLANVILGGYGTTSTAGGKPMEISGTHTEINLDNAIDMIREANSIIITPGYGLCAAKAQYPIADLVKMLTEQGKKVRFGIHPVAGRMPGQLNVLLAEAGVPYDIVLEMDEINHDFPDTDLVLVIGANDTVNSAAQEDPNSIIAGMPVLEVWKSKQVIVMKRSLGVGYAAVDNPIFYKPNTAMLLGDAKKTCDALQAKVRESYQK

Each molecule was assayed against FlagDNAJB8 H31Q (H31Q mutant of the human Hsp40 chaperone DNAJB8) (human) (UniProt Q8NHS0) (assay: affinity purification with mass spectrometry; FlagDNAJB8 H31Q overexpressed in HEK293T; cells treated 30 min with 1 mM acetochlor, alachlor or propachlor (or vehicle) in serum-free media; RIPA lysis; M2 anti-Flag magnetic beads overnight at 4 °C; four RIPA washes; eluates TMT-labelled, LC/LC-MS/MS (12 biological replicates per treatment)).

Row | binding | Molecule
1 | binds | glyceraldehyde-3-phosphate dehydrogenase (GAPDH) (from UniProt P04406 1-335)
2 | binds | PDIA3 (from UniProt P30101 25-505)
3 | binds | HSPD1 (from UniProt P10809 27-573)
4 | binds | microtubule-associated serine/threonine kinase like (MASTL) (from UniProt Q96GX5 1-879)
5 | binds | Parkinson's disease protein 7 (PARK7/DJ-1) (from UniProt Q99497 1-189)
6 | binds | KEAP1 (from UniProt Q14145 1-624)
7 | binds | thymidylate synthase (TYMS) (from UniProt P04818 1-313)
8 | binds | eukaryotic translation initiation factor 3 subunit E (eIF3e) (from UniProt P60228 1-445)
9 | binds | zinc finger protein 24 (ZNF24) (from UniProt P17028 1-368)
10 | binds | creatine kinase CKB (from UniProt P12277 1-381)

Biological target: FlagDNAJB8 H31Q (H31Q mutant of the human Hsp40 chaperone DNAJB8) (human) (UniProt Q8NHS0)
Assay: as above
Remark: another data set of the same source

Row | binding | Molecule
11 | binds | B1
12 | binds | B2
13 | binds | B3
14 | binds | B4

Results are given in words; binding and its absence hold for the method and conditions named. Binding seen in cells or lysates may run through a third protein. Here binding means that the protein was enriched with, or labelled near, the bait; the list need not be complete.
